Experimental data as given in article PMC12817480, “Phospho‐Proteomics Identifies D‐Group MAP Kinases as Substrates of the Arabidopsis Tyrosine Phosphatase RLPH2” (Plant Direct, 2026).
Results are given in words; binding and its absence hold for the method and conditions named. Some binding calls cover weakened binding; strength is not graded here. Where a sequence is shown, tags or fusion partners need not be part of it.

Sequences of proteins named here, by UniProt entry; tags and fusion partners are left off.
UniProt O82733: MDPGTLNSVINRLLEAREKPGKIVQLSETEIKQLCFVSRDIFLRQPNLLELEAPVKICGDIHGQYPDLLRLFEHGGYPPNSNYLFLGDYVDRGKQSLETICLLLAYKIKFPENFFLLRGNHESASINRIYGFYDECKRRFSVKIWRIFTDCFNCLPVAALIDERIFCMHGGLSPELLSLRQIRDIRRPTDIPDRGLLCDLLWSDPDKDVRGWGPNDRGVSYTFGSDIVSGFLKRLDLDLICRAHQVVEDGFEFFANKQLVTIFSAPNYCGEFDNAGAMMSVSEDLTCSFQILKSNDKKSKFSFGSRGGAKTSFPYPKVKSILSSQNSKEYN

Molecular target: T1, Purified MPK9‐V5‐His6 with the RVSF motif maintained (MPK9^RVSF), as used with PP1 (Arabidopsis thaliana) (UniProt Q9LV37)
T1 sequence: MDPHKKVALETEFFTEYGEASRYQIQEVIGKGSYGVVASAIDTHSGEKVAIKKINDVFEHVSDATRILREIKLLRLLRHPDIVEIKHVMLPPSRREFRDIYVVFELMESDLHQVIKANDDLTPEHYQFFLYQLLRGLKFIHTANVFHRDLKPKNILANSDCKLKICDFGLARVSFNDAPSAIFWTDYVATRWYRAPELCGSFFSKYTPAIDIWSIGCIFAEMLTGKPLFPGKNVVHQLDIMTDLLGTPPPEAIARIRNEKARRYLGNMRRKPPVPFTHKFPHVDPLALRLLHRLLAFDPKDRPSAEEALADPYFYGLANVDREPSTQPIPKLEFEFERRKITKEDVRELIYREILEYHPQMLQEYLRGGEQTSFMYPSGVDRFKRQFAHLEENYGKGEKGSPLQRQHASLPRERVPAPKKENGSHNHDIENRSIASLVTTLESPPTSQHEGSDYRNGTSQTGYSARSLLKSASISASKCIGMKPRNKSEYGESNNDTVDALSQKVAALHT
Assay: far-Western, overlay or dot blot; MPK9^RVXF and MPK9^RASA run on SDS‐PAGE, blotted to nitrocellulose, probed with PP1 (TOPP) isoforms (2 μg/mL) for 4 h in TBS plus 5% milk powder; PP1 detected with anti‐TOPP antibody; both purified

binding: binds
Substance: Arabidopsis PP1 isoform 7 (TOPP7) (from UniProt O82733 1-331) (enzyme)
